Results on one molecule are retold here after publication PMC8525590.

Chains of the proteins cited; added tags and fusions are not shown.
UniProt Q01094: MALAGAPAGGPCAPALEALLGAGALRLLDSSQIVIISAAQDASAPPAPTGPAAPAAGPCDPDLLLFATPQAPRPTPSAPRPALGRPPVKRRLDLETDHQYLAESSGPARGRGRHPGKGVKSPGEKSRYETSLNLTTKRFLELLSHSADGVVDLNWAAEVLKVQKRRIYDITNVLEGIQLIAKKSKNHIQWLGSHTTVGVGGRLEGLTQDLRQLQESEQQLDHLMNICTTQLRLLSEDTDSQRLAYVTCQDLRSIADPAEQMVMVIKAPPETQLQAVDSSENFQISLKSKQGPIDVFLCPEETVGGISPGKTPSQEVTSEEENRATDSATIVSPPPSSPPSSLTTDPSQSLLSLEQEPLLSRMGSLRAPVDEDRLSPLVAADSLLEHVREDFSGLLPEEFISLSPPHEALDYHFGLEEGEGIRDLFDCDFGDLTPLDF

The target in the assay is E2F1, endogenous in ACHN cells (human (endogenous in ACHN)) (UniProt Q01094). The assay can be described thus: co-IP; endogenous proteins in ACHN cells; 1 ug target antibody on protein A/G magnetic beads, incubated with cell lysate overnight at 4°C, washed with IP buffer, Western blotting.

No constants are given. Whether binding was seen depends on the method and setting. Binding seen in cells or lysates may run through a third protein. Some binding calls cover weakened binding; strength is not graded here.

B1: Proline rich 11 (PRR11), endogenous in ACHN cells (protein, UniProt Q96HE9 1-360)
chain: MPKFKQRRRKLKAKAERLFKKKEASHFQSKLITPPPPPPSPERVGISSIDISQSRSWLTSSWNFNFPNIRDAIKLWTNRVWSIYSWCQNCITQSLEVLKDTIFPSRICHRELYSVKQQFCILESKLCKLQEALKTISESSSCPSCGQTCHMSGKLTNVPACVLITPGDSKAVLPPTLPQPASHFPPPPPPPPLPPPPPPLAPVLLRKPSLAKALQAGPLKKDGPMQITVKDLLTVKLKKTQSLDEKRKLIPSPKARNPLVTVSDLQHVTLKPNSKVLSTRVTNVLITPGKSQMDLRKLLRKVDVERSPGGTPLTNKENMETGTGLTPVMTQALRRKFQLAHPRSPTPTLPLSTSSFDEQN
With B1, the binding result was “binds”.
